Publication PMC12040169 (PLOS Biology, 2025)
The other results are listed elsewhere or left out.

test system: T1, CTL2-GFP (C. trachomatis L2/434/Bu, GFP-expressing); design: species or system HeLa; Intracellular C. trachomatis growth in HeLa cells, bulk GFP fluorescence relative to DMSO; settings: bulk GFP, single well; 28.5 h, 10 µM; inhibitor
T1 construct: L2/434/Bu, GFP-expressing

Compound | % of control remaining [%]
Clc1ccc(COc2nccnc2OCc2cccnc2N2CCOCC2)cc1Cl [CBK161610] | 100.84
Cc1cc(NS(=O)(=O)c2cccc([N+](=O)[O-])c2)n(C)n1 [CBK067243] | 122.271
COc1ccc(C)cc1-n1ccc(C(=O)NC2(C#N)CCSC2)n1 (centres unmarked) [CBK304943] | 101.182
COc1cccc(C2CC(=O)Nc3c2c(=O)nc(SC)n3C)c1 (centres unmarked) [CBK307546] | 123.314
Cn1nc(-c2ccccc2)cc1[C@H]1CN2CC[C@H]1C[C@@H]2CNS(C)(=O)=O [CBK289096] | 124.125
CC(C)Nc1cc(Sc2cccc(C(=O)O)c2)ncn1 [CBK093583] | 97.8966
CN1CCN(c2ccc(-c3cnc4[nH]c(=O)n(C5CC5)c4n3)cc2)CC1 [CBK064899] | 148.183
Cc1nn(CC(=O)OC(C)C)c(=O)c2cc3sccc3n12 [CBK284022] | 143.715
Cc1ccc(-n2ncc3c(=O)n(CC(=O)Nc4cccc(C)c4)cnc32)cc1 [CBK287533] | 122.705
Cn1ccnc1CCC1CCCCN1C(=O)NCc1cccc(F)c1 (centres unmarked) [CBK307124] | 95.1296
Cn1c2ccc(Br)cc2c2nnc(SCC(=O)N3c4ccccc4Sc4ccccc43)nc21 [CBK263900] | 117.218
COc1ccc(-c2cnc(N)c(-c3ccc(C(=O)NCCO)cc3)n2)cn1 [CBK064147] | 186.419
CC(C)[C@@H]1C[C@H](C(F)(F)F)n2nc(C3CCCNC3)cc2N1 (some centres unmarked) [CBK283056] | 132.355
Cc1nc2ccccn2c1CC(=O)N1CCCC(c2ccc(Cc3cccc(F)c3)cn2)C1 (centres unmarked) [CBK286002] | 66.7897
COc1cc(OC)c(OC)cc1CN1CCN(S(=O)(=O)c2ccc(C)cc2)CC1 [CBK263323] | 102.062
O=CN1CCN(S(=O)(=O)c2ccc3c(c2)Cc2cc(S(=O)(=O)N4CCN(C=O)CC4)ccc2-3)CC1 [CBK264351] | 132.082
OC1(Cn2ccc3ncccc32)CCN(CC2CC=CCC2)CC1 (centres unmarked) [CBK284782] | 150.883
CC(C)(C)OC(=O)N1CCN(c2cncc(NCc3ccccc3)n2)CC1 [CBK000154] | 120.895
CCCC/C=C/c1nccnc1NCc1ccc(C(F)(F)F)cc1 [CBK038077] | 131.507
COc1ccccc1/C=C1/S/C(=N/Cc2ccccc2)N(Cc2ccccc2)C1=O [CBK262234] | 108.205
O=C(O)C1CCCCC1C(=O)NCCCCc1ccccc1 (centres unmarked) [CBK287205] | 143.124
Cc1ccc(N(C(C)C(=O)Nc2ccccc2-c2ccccc2)S(C)(=O)=O)cc1 (centres unmarked) [CBK267889] | 90.9115
CC(=O)C1=C(O)C(=O)N(CCN2CCNCC2)C1c1cccc([N+](=O)[O-])c1 (centres unmarked) [CBK263320] | 83.9673
CC1(C)Cc2ccccc2C(NC(Cc2ccccc2)C(=O)O)=N1 (centres unmarked) [CBK262533] | 100.28
O=c1c(N2CCCNCC2)nccn1CCOc1ccc(Oc2ccccc2)cc1 [CBK028615T] | 131.933

Compound | % of control remaining [%]
O=C(Nc1cccc(C(=O)O)c1)/C(=C\c1ccco1)NC(=O)c1ccc(Br)cc1 [CBK263707] | 105.146
CC(C)Oc1ncccc1OCc1ccccc1 [CBK001457] | 122.415
CCOC(=O)NC(Nn1cnnc1)(C(F)(F)F)C(F)(F)F [CBK261344] | 78.9237
CCc1[nH]c(=O)c(C(=O)N2CCc3[nH]c4c(C)cccc4c3C2)cc1C [CBK281586] | 131.857
CN(Cc1ccc(-c2ccc(S(C)(=O)=O)cc2)cn1)C1CCN(C(=O)CC(C)(C)O)CC1 [CBK165684T] | 101.514
CCCCSc1nnc2nc(C)cc(C)n12 [CBK027588] | 110.319
Nc1ccccc1Sc1ccccn1 [CBK085854] | 91.7178
CS(=O)(=O)N(CC(=O)NC1CCCCCCC1)c1ccccc1 [CBK270112] | 120.609
CN(C)CCNc1nc(-c2ccc(Cl)cc2)nc2ccccc12 [CBK263942] | 14.5377
Cc1ccccc1C(=O)Nc1ccc(S(=O)(=O)Nc2nccs2)cc1 [CBK086797] | 117.143
COc1ccccc1NC(=O)CCCC(=O)O [CBK261323] | 100.647
CCCCC1C(=O)N(C)CCN1C(=O)NCc1cn2ccc(C)cc2n1 (centres unmarked) [CBK306648] | 119.429
COc1ccccc1-c1nccnc1N[C@@H](CO)C(C)C [CBK089034] | 200.755
COc1cccc(C(=O)NCCC(=O)N2CCOCC2)c1 [CBK304639] | 107.183
CC1CN(C(C)N2CC(C)OC2=O)C(=O)O1 (centres unmarked) [CBK022981] | 151.951
O=C(Cc1ccc(F)cc1)N1CCCC(c2cc3ncccc3[nH]2)C1 (centres unmarked) [CBK283414] | 88.1752
CS(=O)(=O)N(CC(=O)Nc1ccc(C(F)(F)F)cc1)Cc1ccc(Cl)cc1 [CBK268915] | 86.6181
COc1cc(-c2cn3ccnc3c(NCC3CCOCC3)n2)cc(OC)c1OC [CBK037284] | 154.593
O=[N+]([O-])c1ccc(O)c(/C=N/c2ccc(Oc3ccc(/N=C/c4cc([N+](=O)[O-])ccc4O)cc3)cc2)c1 [CBK261093] | 100
CC(C)c1ccc(COc2nccnc2OC2CCN(CCCC#N)CC2)cc1 [CBK161576] | 137.862
COc1ccc(C(=O)N[C@@H]2CN(Cc3ccc(CO)o3)CCC[C@H]2O)cc1 [CBK289067] | 131.976
COc1nccnc1N1CCN(Cc2cccnc2)CC1 [CBK084213] | 110.298
CNS(=O)(=O)c1cccc(C(C)NC(=O)N2CCSCC2)c1 (centres unmarked) [CBK305825] | 118.247
N#Cc1ccc(N2C(=O)c3ccccc3S2(=O)=O)cc1 [CBK113195] | 112.374
CCN(CC)Cc1ccc2[nH]c(=O)c(CNCc3ccc(OC)cc3)cc2c1 [CBK132113] | 135.848

Quoted at random: two compounds from above.
Compound | % of control remaining [%]
O=C(Nc1cccc(C(=O)O)c1)/C(=C\c1ccco1)NC(=O)c1ccc(Br)cc1 [CBK263707] | 105.146
CCCCSc1nnc2nc(C)cc(C)n12 [CBK027588] | 110.319
